Consider 15 sequences from a protein production outcome set (Wang et al. 2014).

A short description of the data set: label from the status in PepcDB records.
With “ERLTLDTRLRQALERNELVLHYQPIVELASGRIVGGEALVRWEDPERGLVMPSAFIPAAEDTGLIVALSDWVLEACCTQLRAWQQQGRAADDLTLSVNISTRQFEGEHLTRAVDRALARSGLRPDCLELEITENVMLVMTDEVRTCLDALRARGVRLALDDFGTGYSSLSYLSQLPFHGLKIDQSFVRKIPAHPSETQIVTTILALARGLGMEVVAEGIETAQQYAFLRDRGCEFGQGNLMSTP”, the protein production entry is on record as “not failed”.

In the case of “MADKLTDDQITEYRESFRLFDKNGDGSITKKELGTMMRSIGEKPTKADLQDLMNEADLDGDGTIDFPEFLCVMAKNQGHDQAPRHTKKTMADKLTDDQITEYRESFRLFDKNGDGSITKKELRTVMFSLGKNRTKADLQDMMNEVDLDGDGTIDFPEFLYLMAKNQGHDQAPRHTKKTMVDYQLTDDQILEFREAFRVFDKNGDGYITVNELRTTMRSLGETQTKAELQDMINEADADGDGTISFSEFVCVMTGKMIDTQSKKETYRVVNQGQGQVQRHTRNDRAGGTNWERDIAVGVASNIIASPISDFMKDRFKDLFEALLS”, the protein production result was “failed”.

On to “MANGIKRQHEPPRIVGDLLQSEIAEKQARSIRCQMTIAKLPLVKDIEQFDFTGTPVNEALVRELATRSLVADQRNVVLIGGTGTGKSHLAIAIARALIRNGTRGRFFNVVDLVNKLEAETRSGKQGRTADYLGRLDFVILDELGYLPFAQAGGQLLFHLISRLYERTSIIVTTNLAFGEWPTVFGDAKMTTALLDRLTHHCEIIETGNESWRFKNRALEHHHHHH”, for which the protein production result is listed as “not failed”.

For the sequence “MATRVLSMSARLGPVPQPPAPQDEPVFAQLKPVLGAANPARDAALFPGEELKHAHHRPQAQPAPAQAPQPAQPPATGPRLPPEDLVQTRCEMEKYLTPQLPPVPIIPEHKKYRRDSASVVDQFFTDTEGLPYSINMNVFLPDITHLRTGLYKSQRPCVTHIKTEPVAIFSHQSETTAPPPAPTQALPEFTSIFSSHQTAAPEVNNIFIKQELPTPDLHLSVPTQQGHLYQLLNTPDLDMPSSTNQTAAMDTLNVSMSAAMAGLNTHTSAVPQTAVKQFQGMPPCTYTMPSQFLPQQATYFPPSPPSSEPGSPDRQAEMLQNLTPPPSYAATIASKLAIHNPNLPTTLPVNSQNIQPVRYNRRSNPDLEKRRIHYCDYPGCTKVYTKSSHLKAHLRTHTGEKPYKCTWEGCDWRFARSDELTRHYRKHTGAKPFQCGVCNRSFSRSDHLALHMKRHQN”, the protein production entry was “not failed”.

As to “MDKYDDLGLEASKFIEDLNMYEASKDGLFRVDKGASNNPEFEETRRVFATKMAKIHLQQQQQQQLLQEEALPRAGRSPINGGNRQGVSSKLAADGAAKPPLAVPTVAPGLATTTMAVQSSYPPQEQRTRPSAHGARPGSQNCGSREGPVSSQRPALHGLGPCEDPSCLTHGDYYDNFSLASPQWGDKPEESPSMSLSVGSGWPGCPGNDSLSHRSCGDSHPYHPQLSMCSGRSFESGQDSGIGGHSSEKPTGLWSTASSQRVNLGFSSTGLENGTPAQPKGTTVSAPMVPSSTSQGACLRRDSSLGYEAPGRVFKPLVDTQPWLQDGPKSYLSVSAPLSSTTSKDNAQTGMTAGLDPKLGCVESGTSPKPSPTSNVHPVMSAPSELSCKESPPSWSTDSSLGPVLPESPTPSRVRLPCQTLTPGPELGPSTAELKLEALTQRLEREMDAHPKADYFGACVKCSKGVFGAGQACQAMGDLYHDACFTCAACSRKLRGKAFYFVNGKVFCEEDFLYSGFQQSADRCFLCGHLIMDMILQALGKSYHPGCFRCVICNECLDGVPFTVDSENKIYCVRDYHKVLAPKCAACGLPILPPEGSDETIRVVSMDRDYHVECYHCEDCGLELNDEDGHRCYPLEDHLFCHSCHVKRLEKGPSPASLHQHHF”, the protein production entry is “failed”.

With “MEKYNPHAIEAKWQRFWEEKGFMKAKDLPGGRGKQYVLVMFPYPSGDLHMGHLKNYTMGDVLARFRRMQGYEVLHPMGWDAFGLPAENAALKFGVHPKDWTYANIRQAKESLRLMGILYDWDREVTTCEPEYYRWNQWIFLKMWEKGLAYRAKGLVNWCPKCQTVLANEQVVEGRCWRHEDTPVEKRELEQWYLRITAYAERLLKDLEGLNWPEKVKAMQRAWIGRSEGAEILFPVEGKEVRIPVFTTRPDTLFGATFLVLAPEHPLTLELAAPEKREEVLAYVEAAKRKTEIERQAEGREKTGVFLGAYALNPATGERIPIWTADYVLFGYGTGAIMAVPAHDQRDYEFARKFGLPIKKVIERPGEPLPEPLERAYEEPGIMVNSGPFDGTESEEGKRKVIAWLEEKGLGKGRVTYRLRDWLISRQRYWGTPIPMVHCEACGVVPVPEEELPVLLPDLKDVEDIRPKGKSPLEAHPEFYETTCPKCGGPAKRDTDTMDTFFDSSWYYLRYTDPHNDRLPFDPEKANAWMPVDQYIGGVEHAVLHLLYSRFFTKFLHDLGMVKVEEPFQGLFTQGMVLAWTDFGPVEVEGSVVRLPEPTRIRLEIPESALSLEDVRKMGAELRPHEDGTLHLWKPAVMSKSKGNGVMVGPFVKEQGADIARITILFAAPPENEMVWTEEGVQGAWRFLNRIYRRVAEDREALLETSGVFQAEALEGKDRELYGKLHETLKKVTEDLEALRFNTAIAALMEFLNALYEYRKDRPVTPVYRTAIRYYLQMLFPFAPHLAEELWHWFWPDSLFEAGWPELDEKALEKDVVEVAVQVNGRVRGTIHIPKDAPLEVARAEALKVRNVRAHLEGKEVVKEIYVPGKILNLVVRG”, the protein production result was “not failed”.

In the case of “MHTPITTALPDYQSQHKKRLSWMPWLYFSLKEKHLTWAKPWQNEVQTNLCALETVTIGDNCFIAPEAQLFAEPNRDINIGNHCMIAADCFLHGPITLGNEVAINHGCSLDGGRVGIQIGDQTRIANHVTIYAFNHGMAPDTPIYQQASHSKGIVIGKDVWIGAQAGIVDGVTIGDHAVIGMGCIVTKDVPAWAIVAGNPARVIGDRRDK”, the protein production result is “failed”.

For the sequence “MKKSKFSDSQIIEALKRVEAGLSVPKLCRELGISTAAFYKWRAKHGGLAVSMMARMKELEAENARLNEDARGGAPEGRHSSGGDFKKVVRPSHLRATARRAVSGHRVSIRLGCAAFQVSGTCYRHSAKRNAGNEEIADWLMRLTDNHRNWGFGLCFLYLRNVKGFGWNHKRVCRICRELELNLRIKPRKRLKRDKPEPLTAPTRINQVWSMDFMHDQRADGRKFRLFNVIDDFNRASLGMEVDFSPPSERVTRALEQVMEWRGRPRVIRCDNGPENISAKVQARAARQGIRIECIQPGNPQQNAHVERFNRTVRHEWLSQYDWESLDEVQAFATRWMWTYNHERPNMALGGITPKQRLARAA”, the protein production entry is recorded as “failed”.

As to “MLDICLEKRVGTTLAAPKCNSSTVRFQGLAEGTKGTMKMDMEDADMTLWTEAEFEEKCTYIVNDHPWDSGADGGTSVQAEASLPRNLLFKYATNSEEVIGVMSKEYIPKGTRFGPLIGEIYTNDTVPKNANRKYFWRIYSRGELHHFIDGFNEEKSNWMRYVNPAHSPREQNLAACQNGMNIYFYTIKPIPANQELLVWYCRDFAERLHYPYPGELTMMNLTQTQSSLKQPSTEKNELCPKNVPKREYSVKEILKLDSNPSKGKDLYRSNISPLTSEKDLDDFRRRGSPEMPFYPRVVYPIRAPLPEDFLKASLAYGIERPTYITRSPIPSSTTPSPSARSSPDQSLKSSSPHSSPGNTVSPVGPGSQEHRDSYAYLNASYGTEGLGSYPGYAPLPHLPPAFIPSYNAHYPKFLLPPYGMNCNGLSAVSSMNGINNFGLFPRLCPVYSNLLGGGSLPHPMLNPTSLPSSLPSDGARRLLQPEHPREVLVPAPHSAFSFTGAAASMKDKACSPTSGSPTAGTAATAEHVVQPKATSAAMAAPSSDEAMNLIKNKRNMTGYKTLPYPLKKQNGKIKYECNVCAKTFGQLSNLKVHLRVHSGERPFKCQTCNKGFTQLAHLQKHYLVHTGEKPHECQVCHKRFSSTSNLKTHLRLHSGEKPYQCKVCPAKFTQFVHLKLHKRLHTRERPHKCSQCHKNYIHLCSLKVHLKGNCAAAPAPGLPLEDLTRINEEIEKFDISDNADRLEDVEDDISVISVVEKEILAVVRKEKEETGLKVSLQRNMGNGLLSSGCSLYESSDLPLMKLPPSNPLPLVPVKVKQETVEPMDP”, the protein production entry was “failed”.

For the sequence “MLDIRGVRKSFRKPDGSELLVLDGIDFTLGEGEIIGLLGRSGSGKSTLLRSIAGLTPPSAGSVIYHGNEVTAPPPGIAMVFQGFALFPWLTVLENVQLGLEALGLSTGELHRRAIEAIDLIGLDGFESAYPRELSGGMRQRVGFARALVVHPNILLMDEPFSALDVLTAETLRTDFLDLWSEGQLPIKGVILVTHNIEEAVLMCDRILIFGSNPGRILNEIKVELPHPRARLDPAFRDLVERIYVEMTTRSASVPAGRRTEYFPGTGIGTILPHVSSNSLSGLLEAVAAAPYNGEADLPVIASSLHMEIDELFPVAETLQMLRFAEVAGGDIRLTTEGRQFADFDTDRRKHLFARHLLTYVALAAHIRRVLDERPVHQAPWSRFADELEDYMPPAAAVQTLRTIIALGRYAEIFSYDDEKQVFSLDNPLEHHHHHH”, the protein production entry is recorded as “failed”.

In the case of “MLKATGTVAPAMHVVFPCFSSRPLILPLRSTKTFKPLSCFKQQGGKGMNGVHEIELKVRDYELDQFGVVNNAVYANYCQHGQHEFMETIGINCDEVSRSGEALAVSELTIKFLAPLRSGCKFVVKTRISGTSMTRIYFEQFIFKLPNQEPILEAKGMAVWLDKRYRPVCIPSYIRSNFGHFQRQHVVEY”, the protein production entry is given as “failed”.

For the sequence “MMVLKVEELVTGKKNGNGEAGEFLPEDFRDGEYEAAVTLEKQEDLKTLLAHPVTLGEQQWKSEKQREAELPKKKLEQRSKLENLEDLEIIIQLKKRKKYRKTKVPVVKEPEPEIITEPVDVPTFLKAALENKLPVVEKFLSDKNNPDVCDEYKRTALHRACLEGHLAIVEKLMEAGAQIEFRDMLESTAIHWASRGGNLDVLKLLLNKGAKISARDKLLSTALHVAVRTGHYECAEHLIACEADLNAKDREGDTPLHDAVRLNRYKMIRLLIMYGADLNIKNCAGKTPMDLVLHWQNGTKAIFDSLRENSYKTSRIATF”, the protein production result is on record as “failed”.

In the case of “MPRPGLKTRSKRRVYVRTPGGKVVIHYEPRKPGPARCAICGKPLNGVPRLIPSKLRKLAKTEKRPERPYGGYICPRCLSRLLRESIRASISS”, the protein production result is listed as “failed”.

For the sequence “MRKKIIATVIGTSALAAVTWTNADAATTYKVKSGDSLWSIANKYNMSVAKLKSLNNLTSNVIFPNQSLKVSGSTSSSTSSNTSTGSTYTVKSGDTLSGIAAKYGTTYQKIMSLNGLSNFNIYPGQKLKVSGAASSSSSNTSGNTSSGSTTTYTVKSGDSLSAIAAKYGTTYQKIMSLNGLTNFNIYPGQKLKVSGKASTGGSGSSSTGSAGYKTPVFNHSNLYDWGQCTWHVFNKRAQIGKGISTYWWNANNWDTAAAADGYTIDRKATVGSILQSDMGYYGHVAFVESVNANGSITISEMNYSASPGIVTYRTIPASQVSSYVYIHLEHHHHHH”, the protein production result is given as “not failed”.

Regarding “MRWLTGIEIHPGATIGRRFFIDHGMGIVIGETAEIGDDVTLYQGVTLGGTSWNKGKRHPTLENGVVVGAGAKVLGPFTVGAGAKIGSNAVVTKAVPAGATAVGIPGRIIVKSEDTEVEAKRKAMAEKIGFDAYGVSGDMPDPVARLEHHHHHH”, the protein production result is recorded as “failed”.
